From paper PMC3717027
No constants are given. Whether binding was seen depends on the method and setting. Binding seen in cells or lysates may run through a third protein. Some binding calls cover weakened binding; strength is not graded here. Tags and fused reporters may be left off the sequences shown.

Biological target: T1, Ala10-humanPABPN1-FLAG (human) (UniProt Q86U42)
T1 sequence: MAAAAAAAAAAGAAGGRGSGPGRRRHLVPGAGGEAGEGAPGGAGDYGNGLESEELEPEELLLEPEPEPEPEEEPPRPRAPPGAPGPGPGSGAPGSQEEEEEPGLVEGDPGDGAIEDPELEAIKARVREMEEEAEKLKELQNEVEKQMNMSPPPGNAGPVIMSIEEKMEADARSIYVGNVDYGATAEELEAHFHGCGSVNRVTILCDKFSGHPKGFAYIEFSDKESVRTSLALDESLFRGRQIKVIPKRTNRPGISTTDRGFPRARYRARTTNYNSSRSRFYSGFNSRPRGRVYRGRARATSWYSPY
Assay: co-IP; soluble protein extracts of 4-day fused myotube cultures (150 mM NaCl, 50 mM Tris pH7.5, 0.1% Tween, protease inhibitors); FLAG-tagged PABPN1 bound with rabbit anti-FLAG and precipitated with Protein-A Sepharose; washes with decreasing NaCl (150-0 mM); blot with rabbit anti-Pcolce; parental IM2 extract as control

B1: procollagen C-proteinase enhancer 1 (Pcolce), full-length 48 kDa protein (protein, UniProt Q61398 25-468)
chain: QTPNYTRPVFLCGGDVTGESGYVASEGFPNLYPPNKKCIWTITVPEGQTVSLSFRVFDMELHPSCRYDALEVFAGSGTSGQRLGRFCGTFRPAPVVAPGNQVTLRMTTDEGTGGRGFLLWYSGRATSGTEHQFCGGRMEKAQGTLTTPNWPESDYPPGISCSWHIIAPSNQVIMLTFGKFDVEPDTYCRYDSVSVFNGAVSDDSKRLGKFCGDKAPSPISSEGNELLVQFVSDLSVTADGFSASYRTLPRDAVEKESALSPGEDVQRGPQSRSDPKTGTGPKVKPPTKPKSQPAETPEASPATQATPVAPAAPSITCPKQYKRSGTLQSNFCSSSLVVTGTVKTMVRGPGEGLTVTVSLLGVYKTGGLDLPSPPSGTSLKLYVPCRQMPPMKKGASYLLMGQVEENRGPILPPESFVVLYRSNQDQILNNLSKRKCPSQPRTAA
With B1 as the binder, how does the binding read?
Its binding is “binds”.
